Some of the results follow. Shown are side measurements of this screen, not its main read-out; they come without a call. Compounds called inactive in the main read-out are mostly missing here. Potencies come from curve fits of mixed quality, noted in brackets.

Consider 41 molecules from PubChem BioAssay AID2685 (National Center for Advancing Translational Sciences (NCATS), 2010).

The assay can be described thus: qHTS Assay for Lipid Storage Modulators in Drosophila S3 Cells.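 On cell number change: cells counted by Cell Tracker Red CMTPX staining in the red channel.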 The conditions noted are these: BODIPY lipid droplet fluorescence, 18-24 h; for cell number change: measured here: cell count max response, cells fed with added oleic acid. In outline: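 Laser-scanning cytometry quantifies lipid droplet accumulation (500–530 nm total intensity; droplet/cell object ratio) in oleic acid-fed (400 uM added) Drosophila S3 cells treated with a concentration series. 20 uM Triacsin C defined 100% inhibition.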

Where [1] appears, read: measured here: lipid fluorescence (Fed channel) AC50, cells fed with added oleic acid.
Setting [2] is: measured here: cell number channel AC50, cells fed with added oleic acid.

As usually defined, the AC50 is the concentration at which the activity in the assay is half-maximal. A lower AC50 goes with greater potency. For the molecule `CCc1ccccc1OCC(=O)Nc1nc(-c2cccnc2)cs1`, the AC50 under setting [1] is 0.58 µM [falling, single point]. On to `COC(=O)[C@H](C)NC(=O)Nc1ccc(Oc2ccccc2)cc1`, for which the cell number change is 4.1%. For the same molecule, the AC50 under setting [1] is 5.17 µM [falling, single point]. Consider `COc1ccc(C2(C)NC(=O)N(CC(=O)NCCC3=CCCCC3)C2=O)cc1OC` (configuration not stated), for which the cell number change came to 22.2%. With `Cc1cc(C)n(-c2cc(Oc3ccccc3)ncn2)n1`, the cell number change was -6.03%. Moreover, the AC50 under setting [2] is 3.26 µM [rising, single point]. Turning to `c1ccc(-c2cc(N3CCOCC3)nc3ccccc23)cc1`, the cell number change came out at 85.1%. For the same molecule, the AC50 under setting [2] was 23.1 µM [rising, single point]. Further, the AC50 under setting [1] is 2.91 µM [falling, single point]. Regarding `O=C(CN1C(=O)NC2(CCCC2)C1=O)OCCOc1ccc(Br)cc1`, the cell number change is -11.9%. Also, the AC50 under setting [1] was 29.1 µM [falling, single point]. With `CCOc1ccc(CCNC(=O)Cn2ccc3ccccc3c2=O)cc1OCC`, the cell number change is -17.1%. Moreover, the AC50 under setting [1] is 25.9 µM [falling, partial curve].

Regarding `O=C(O)c1ccc(Cl)c(S(=O)(=O)NCc2ccco2)c1`, the cell number change is -20.9%. For the same molecule, under setting [1], the AC50 was 0.731 µM [falling, full curve]. Regarding `O=C(CC1CC2CCC1C2)Nc1nc(-c2ccccn2)cs1` (configuration not stated), the cell number change is -6.56%. Besides, the AC50 under setting [1] was 0.0058 µM [rising, full curve, poor fit]. As for `CC(=O)NCC(=O)OCC(=O)c1ccc(Cl)cc1`, the cell number change was 19.7%.

On to `CCOc1ccc(CN2CCNC(=O)C2CC(=O)OC)cc1` (configuration not stated), for which the cell number change is 16.5%. As to `COc1ccc(-c2ccc(C(C)=O)cc2)cc1[C@H]1[C@H]2C=CC[C@@H](C)[C@@H]2C(=O)N1Cc1ccccc1`, the cell number change is 22.8%. Also, under setting [1], the AC50 is 29.1 µM [rising, single point]. Take `Cc1cc(N2CCN(C(=O)c3cccs3)CC2)c(F)cc1[N+](=O)[O-]`: the cell number change is -16.8%. Under setting [1], the AC50 is 11.6 µM [falling, single point]. As for `O=c1oc2c(CN3CCOCC3)c(O)c(Cl)cc2c2c1CCC2`, the cell number change was -26.5%. In the case of `Cc1cccc(N2CCN(CC(=O)NCc3ccc(Cl)cc3)CC2)c1C`, the cell number change is -34.7%. Besides, under setting [2], the concentration at half-maximal activity (AC50) is 14.6 µM [falling, single point]. Also, the AC50 under setting [1] is 11.6 µM [falling, partial curve].

Regarding `O=C(NC1CCCCC1)c1ccc([N+](=O)[O-])o1`, the cell number change was -6.35%. `COC(=O)CNc1c(-c2ccccn2)nc2ccc(Br)cn12`: the cell number change was 140%. Also, under setting [2], the AC50 is 6.51 µM [rising, partial curve]. Moreover, the AC50 under setting [1] was 6.51 µM [rising, partial curve]. With `CCc1noc(C)c1C(=O)N1CCN(S(=O)(=O)c2ccc(C(C)=O)cc2)CC1`, the cell number change was 5.34%. Under setting [1], the AC50 was 1.3 µM [falling, full curve, poor fit]. In the case of `Cc1c(S(=O)(=O)N2CCN(c3ccc(F)cc3)CC2)c(=O)n(C)c(=O)n1C`, the cell number change is -9.68%. Further, the AC50 under setting [1] was 4.11 µM [falling, full curve, poor fit]. `CC1Cc2cc(S(=O)(=O)N3CCCCC3C)ccc2N1C(=O)C1CCC1` (configuration not stated): the cell number change worked out at 9.16%. The AC50 under setting [1] was 29.1 µM [rising, partial curve]. On to `CCCOc1ccc(/C=N/Nc2cccc([N+](=O)[O-])c2)c(O)c1`, for which the cell number change is -34.1%. Further, the AC50 under setting [2] is 32.6 µM [falling, single point]. Take `Cc1cccnc1NC(=O)C1CCN(S(=O)(=O)c2c(C)noc2/C=C/c2ccco2)CC1`: the cell number change is -1.49%. On the same count and under the same terms, then `CC(C)CC(NC(=O)C1CCC(C)CC1)C(=O)NCc1cccnc1` (configuration not stated), with 20.2%.

For `COc1ccc(C)cc1NC(=O)C(Sc1nnc2ccccn12)c1ccccc1` (configuration not stated), the cell number change amounted to 17.8%. Besides, the AC50 under setting [1] was 4.61 µM [rising, partial curve].

As for `O=C1CC(c2ccccc2Br)c2cc3c(cc2N1)CCC3` (configuration not stated), the cell number change turned out to be 22.5%. Also, the AC50 under setting [1] is 5.8 µM [rising, single point]. For the molecule `c1ccc(COc2ccc(CNCc3cccs3)cc2)cc1`, the AC50 under setting [1] was 2.06 µM [falling, partial curve]. On to `Cc1ccc(C(=O)OCC(=O)Nc2ccc(N(C)C)cc2)cc1NC(=O)c1ccco1`, for which the AC50 under setting [2] was 0.82 µM [rising, full curve, poor fit]. In the case of `CC1(c2nnc(Cc3ccccc3)o2)CC(c2cccc([N+](=O)[O-])c2)=NO1` (configuration not stated), the cell number change is 1.04%. For `COc1ccc(C2=CSC3=NNC4(CCCCC4)NN23)cc1`, the cell number change worked out at 5.56%. The half-maximal activity concentration (AC50) under setting [2] is 0.146 µM [falling, partial curve, poor fit]. For `Cc1ccccc1CNc1ccc(C(CC(N)=O)NC(=O)c2ccc(Br)cc2)cc1[N+](=O)[O-]` (configuration not stated), the cell number change came to 24.3%.

Turning to `O=C(Nc1ccccc1F)c1cc(C(=O)Nc2ccccc2F)cc([N+](=O)[O-])c1`, the cell number change was -29.1%. In addition, the AC50 under setting [1] is 18.4 µM [falling, single point].

Regarding `O=C1CC(c2cccc(Oc3ccccc3)c2)NC(=O)N1` (configuration not stated), the cell number change came out at 30.3%. Further, the AC50 under setting [2] was 14.6 µM [rising, partial curve, poor fit]. Moreover, the AC50 under setting [1] was 14.6 µM [rising, partial curve, poor fit]. For the molecule `Fc1cccc(Cn2cc(C(=S)N3CCCCC3)c3ccccc32)c1`, the AC50 under setting [2] was 2.91 µM [rising, partial curve]. As to `Nc1cc(=O)[nH]c(SCC(=O)Nc2nnc(-c3ccccc3)s2)n1`, the cell number change is -4.42%. Further, the AC50 under setting [2] is 0.146 µM [falling, full curve, poor fit]. For the same molecule, the concentration at half-maximal activity (AC50) under setting [1] is 0.146 µM [falling, full curve, poor fit].

With `Cc1c(NC(=O)c2ccc3c(c2)OCO3)cccc1-c1nc2ncccc2o1`, the concentration at half-maximal activity (AC50) under setting [2] is 0.0517 µM [rising, full curve, poor fit]. As to `Cc1ccc(C(=O)OC(C)C(=O)NC2CCCCC2C)s1` (configuration not stated), the cell number change was determined as 3.67%. Also, the AC50 under setting [1] is 0.00517 µM [rising, full curve, poor fit]. As for `Cc1noc(/C=C/c2ccccn2)c1[N+](=O)[O-]`, the cell number change is -29.8%. Besides, under setting [1], the AC50 was 10.3 µM [falling, partial curve]. As for `OCC1(CO)COC2(CCCC2)N1`, the cell number change turned out to be 4.43%. On to `CC(Sc1nc2ccccc2c(=O)n1CC1CCCO1)C(=O)N(C)c1ccccc1` (configuration not stated), for which the cell number change was -19.6%. The AC50 under setting [1] was 0.291 µM [falling, partial curve, poor fit]. For the molecule `Cc1nc(-c2cccnc2)sc1C(=O)Nc1ccc(F)cc1F`, the cell number change was -31.9%. Moreover, the AC50 under setting [1] is 0.00461 µM [falling, full curve, poor fit].

Consider `COc1ccc(N2CCN(C(=O)c3ccc(COc4ccc([N+](=O)[O-])cc4)o3)CC2)cc1`, for which the cell number change is -11%. Under setting [1], the AC50 was 3.66 µM [rising, partial curve].
